This is an account of results in article PMC12568185.

The chains behind the UniProt entries cited, without tags or fusion partners.
UniProt P03430: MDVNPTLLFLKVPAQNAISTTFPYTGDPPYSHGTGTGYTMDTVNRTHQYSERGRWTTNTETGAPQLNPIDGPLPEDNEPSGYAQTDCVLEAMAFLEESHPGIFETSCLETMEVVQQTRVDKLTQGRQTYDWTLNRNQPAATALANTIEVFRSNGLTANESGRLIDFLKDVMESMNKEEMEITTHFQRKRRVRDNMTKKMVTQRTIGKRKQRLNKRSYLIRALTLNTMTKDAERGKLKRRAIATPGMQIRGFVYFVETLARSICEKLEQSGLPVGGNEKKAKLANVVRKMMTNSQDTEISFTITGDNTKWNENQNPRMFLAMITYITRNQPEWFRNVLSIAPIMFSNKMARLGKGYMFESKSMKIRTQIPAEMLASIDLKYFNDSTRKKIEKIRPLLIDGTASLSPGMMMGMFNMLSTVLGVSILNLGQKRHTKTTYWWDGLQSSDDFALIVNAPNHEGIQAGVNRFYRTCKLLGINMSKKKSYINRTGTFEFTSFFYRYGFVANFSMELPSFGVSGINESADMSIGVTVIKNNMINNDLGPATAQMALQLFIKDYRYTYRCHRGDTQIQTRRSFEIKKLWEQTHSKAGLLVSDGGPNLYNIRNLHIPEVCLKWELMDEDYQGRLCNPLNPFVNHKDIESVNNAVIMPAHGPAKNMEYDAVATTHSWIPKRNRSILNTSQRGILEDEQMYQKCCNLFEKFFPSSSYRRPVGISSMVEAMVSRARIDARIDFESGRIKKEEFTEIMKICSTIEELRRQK

This experiment has as its target T1, FLAG–14-3-3η (UniProt Q04917).
T1 sequence: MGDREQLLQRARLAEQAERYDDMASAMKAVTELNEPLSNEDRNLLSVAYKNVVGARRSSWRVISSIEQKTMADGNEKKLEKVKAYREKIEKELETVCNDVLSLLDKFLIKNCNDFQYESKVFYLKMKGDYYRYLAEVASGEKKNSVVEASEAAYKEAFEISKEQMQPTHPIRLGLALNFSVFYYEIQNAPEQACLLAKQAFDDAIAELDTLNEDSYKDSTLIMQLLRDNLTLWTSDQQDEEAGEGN
The experiment is described as follows: co-IP.

No constants are given. Whether binding was seen depends on the method and setting. In cells and extracts the contact can be indirect. Some results given as binding are weak or reduced against the parent protein; the word gives no strength. Tags and fused reporters may be left off the sequences shown.

Take “PB1 protein of influenza A virus WSN/33 (H1N1), from infection (from UniProt P03430 1-757)”: the binding entry is reported as “binds”.
